{"source": "the supplement of paper PMC8728848", "binders": {"B1": {"name": "CBP21 (Serratia marcescens), O83009 (protein)", "chain": "MNKTSRTLLSLGLLSAAMFGVSQQANAHGYVESPASRAYQCKLQLNTQCGSVQAEPQSVEGLKGFPQAGPADGHIASADKSTFFELDQQTPTRWNKLNLKTGPNSFTWKLTARHSTTSWRYFITKPNWDASQPLTRASFDLTPFCQFNDGGAIPAAQVTHQCNIPADRSGSHVILAVWDIADTANAFYQAIDVNLSK"}}, "experiment_in_all_cases": "glycan array binding signal (z-score within array); higher = stronger binding", "conditions_in_all_cases": "glycan notation: IUPAC condensed, linker removed; mutation: Y54A", "key": {"[1]": {"biological_target": "Fuc(a1-2)Gal(b1-4)[Fuc(a1-3)]GlcNAc", "how_it_was_run": "(§1)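 The binding signal is a Z-score computed within each array and averaged over linkers. Arrays of the same protein sequence at different concentrations or buffers were also averaged together. Data originate from 3228 arrays in the Consortium for Functional Glycomics database, kept only where the protein sequence was available.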"}, "[2]": {"biological_target": "Fuc(a1-2)Gal(b1-4)[Fuc(a1-3)]GlcNAc(b1-2)Man(a1-3)[Fuc(a1-2)Gal(b1-4)[Fuc(a1-3)]GlcNAc(b1-2)Man(a1-6)]Man(b1-4)GlcNAc(b1-4)[Fuc(a1-6)]GlcNAc", "how_it_was_run": "as §1"}, "[3]": {"biological_target": "Fuc(a1-2)Gal(b1-4)[Fuc(a1-3)]GlcNAc(b1-2)[Fuc(a1-2)Gal(b1-4)[Fuc(a1-3)]GlcNAc(b1-4)]Man(a1-3)[Fuc(a1-2)Gal(b1-4)[Fuc(a1-3)]GlcNAc(b1-2)Man(a1-6)]Man(b1-4)GlcNAc(b1-4)GlcNAc", "how_it_was_run": "as §1"}, "[4]": {"biological_target": "Fuc(a1-2)Gal(b1-4)[Fuc(a1-3)]GlcNAc(b1-3)Gal(b1-4)[Fuc(a1-3)]GlcNAc", "how_it_was_run": "as §1"}, "[5]": {"biological_target": "Fuc(a1-2)Gal(b1-4)[Fuc(a1-3)]GlcNAc(b1-3)Gal(b1-4)[Fuc(a1-3)]GlcNAc(b1-3)Gal(b1-4)[Fuc(a1-3)]GlcNAc", "how_it_was_run": "as §1"}, "[6]": {"biological_target": "Fuc(a1-2)Gal(b1-4)[Fuc(a1-3)]GlcNAc(b1-3)GalNAc", "how_it_was_run": "as §1"}, "[7]": {"biological_target": "Fuc(a1-2)Gal(b1-4)[Fuc(a1-3)]GlcNAc(b1-3)[Neu5Ac(a2-6)Gal(b1-4)GlcNAc(b1-6)]Gal(b1-4)Glc", "how_it_was_run": "as §1"}, "[8]": {"biological_target": "Fuc(a1-2)Gal3S(b1-4)GlcNAc", "how_it_was_run": "as §1"}, "[9]": {"biological_target": "Fuc(a1-2)Gal6S(b1-3)GlcNAc", "how_it_was_run": "as §1"}, "[10]": {"biological_target": "Fuc(a1-2)Gal6S(b1-3)GlcNAc6S", "how_it_was_run": "as §1"}, "Fuc(a1-2)Gal6S(b1-4)Glc": {"biological_target": "Fuc(a1-2)Gal6S(b1-4)Glc", "how_it_was_run": "as §1"}, "[11]": {"biological_target": "Fuc(a1-2)Gal6S(b1-4)Glc6S", "how_it_was_run": "as §1"}, "Fuc(a1-2)[Gal(a1-3)]Gal": {"biological_target": "Fuc(a1-2)[Gal(a1-3)]Gal", "how_it_was_run": "as §1"}, "[12]": {"biological_target": "Fuc(a1-2)[Gal(a1-3)]Gal(b1-3)GalNAc", "how_it_was_run": "as §1"}, "[13]": {"biological_target": "Fuc(a1-2)[Gal(a1-3)]Gal(b1-3)GalNAc(b1-3)Gal(a1-4)Gal(b1-4)Glc", "how_it_was_run": "as §1"}, "[14]": {"biological_target": "Fuc(a1-2)[Gal(a1-3)]Gal(b1-3)GlcNAc", "how_it_was_run": "as §1"}, "[15]": {"biological_target": "Fuc(a1-2)[Gal(a1-3)]Gal(b1-3)GlcNAc(b1-2)Man(a1-3)[Fuc(a1-2)[Gal(a1-3)]Gal(b1-3)GlcNAc(b1-2)Man(a1-6)]Man(b1-4)GlcNAc(b1-4)GlcNAc", "how_it_was_run": "as §1"}, "[16]": {"biological_target": "Fuc(a1-2)[Gal(a1-3)]Gal(b1-3)GlcNAc(b1-2)Man(a1-3)[Fuc(a1-2)[Gal(a1-3)]Gal(b1-3)GlcNAc(b1-2)Man(a1-6)]Man(b1-4)GlcNAc(b1-4)[Fuc(a1-6)]GlcNAc", "how_it_was_run": "as §1"}, "[17]": {"biological_target": "Fuc(a1-2)[Gal(a1-3)]Gal(b1-3)GlcNAc(b1-3)GalNAc", "how_it_was_run": "as §1"}, "[18]": {"biological_target": "Fuc(a1-2)[Gal(a1-3)]Gal(b1-3)GlcNAc(b1-6)GalNAc", "how_it_was_run": "as §1"}, "[19]": {"biological_target": "Fuc(a1-2)[Gal(a1-3)]Gal(b1-4)Glc", "how_it_was_run": "as §1"}, "[20]": {"biological_target": "Fuc(a1-2)[Gal(a1-3)]Gal(b1-4)GlcNAc", "how_it_was_run": "as §1"}, "[21]": {"biological_target": "Fuc(a1-2)[Gal(a1-3)]Gal(b1-4)GlcNAc(b1-2)Man", "how_it_was_run": "as §1"}, "[22]": {"biological_target": "Fuc(a1-2)[Gal(a1-3)]Gal(b1-4)GlcNAc(b1-2)Man(a1-3)[Fuc(a1-2)[Gal(a1-3)]Gal(b1-4)GlcNAc(b1-2)Man(a1-6)]Man(b1-4)GlcNAc(b1-4)GlcNAc", "how_it_was_run": "as §1"}, "[23]": {"biological_target": "Fuc(a1-2)[Gal(a1-3)]Gal(b1-4)GlcNAc(b1-2)Man(a1-3)[Fuc(a1-2)[Gal(a1-3)]Gal(b1-4)GlcNAc(b1-2)Man(a1-6)]Man(b1-4)GlcNAc(b1-4)[Fuc(a1-6)]GlcNAc", "how_it_was_run": "as §1"}, "[24]": {"biological_target": "Fuc(a1-2)[Gal(a1-3)]Gal(b1-4)GlcNAc(b1-3)GalNAc", "how_it_was_run": "as §1"}, "[25]": {"biological_target": "Fuc(a1-2)[Gal(a1-3)]Gal(b1-4)GlcNAc(b1-3)[Fuc(a1-2)[Gal(a1-3)]Gal(b1-4)GlcNAc(b1-6)]GalNAc", "how_it_was_run": "as §1"}, "[26]": {"biological_target": "Fuc(a1-2)[Gal(a1-3)]Gal(b1-4)GlcNAc(b1-6)GalNAc", "how_it_was_run": "as §1"}, "[27]": {"biological_target": "Fuc(a1-2)[Gal(a1-3)]Gal(b1-4)[Fuc(a1-3)]Glc", "how_it_was_run": "as §1"}, "[28]": {"biological_target": "Fuc(a1-2)[Gal(a1-3)]Gal(b1-4)[Fuc(a1-3)]GlcNAc", "how_it_was_run": "as §1"}, "[29]": {"biological_target": "Fuc(a1-2)[Gal(a1-3)]Gal(b1-4)[Fuc(a1-3)]GlcNAc(b1-3)GalNAc", "how_it_was_run": "as §1"}, "[30]": {"biological_target": "Fuc(a1-2)[Gal(a1-4)]Gal(b1-4)GlcNAc", "how_it_was_run": "as §1"}, "[31]": {"biological_target": "Fuc(a1-2)[GalNAc(a1-3)]Gal", "how_it_was_run": "as §1"}, "[32]": {"biological_target": "Fuc(a1-2)[GalNAc(a1-3)]Gal(b1-3)GalNAc(a1-3)[Fuc(a1-2)]Gal(b1-4)GlcNAc", "how_it_was_run": "as §1"}, "[33]": {"biological_target": "Fuc(a1-2)[GalNAc(a1-3)]Gal(b1-3)GalNAc(b1-3)Gal(a1-4)Gal(b1-4)Glc", "how_it_was_run": "as §1"}, "[34]": {"biological_target": "Fuc(a1-2)[GalNAc(a1-3)]Gal(b1-3)GlcNAc", "how_it_was_run": "as §1"}, "[35]": {"biological_target": "Fuc(a1-2)[GalNAc(a1-3)]Gal(b1-3)GlcNAc(b1-2)Man(a1-3)[Fuc(a1-2)[GalNAc(a1-3)]Gal(b1-3)GlcNAc(b1-2)Man(a1-6)]Man(b1-4)GlcNAc(b1-4)GlcNAc", "how_it_was_run": "as §1"}, "[36]": {"biological_target": "Fuc(a1-2)[GalNAc(a1-3)]Gal(b1-3)GlcNAc(b1-2)Man(a1-3)[Fuc(a1-2)[GalNAc(a1-3)]Gal(b1-3)GlcNAc(b1-2)Man(a1-6)]Man(b1-4)GlcNAc(b1-4)[Fuc(a1-6)]GlcNAc", "how_it_was_run": "as §1"}}, "note": "This is one part of the list.", "data": [{"binder": "B1", "values": [{"measurement": "glycan array binding signal (z-score)", "setting": "[1]", "value": -0.361}, {"measurement": "glycan array binding signal (z-score)", "setting": "[2]", "value": 1.71}, {"measurement": "glycan array binding signal (z-score)", "setting": "[3]", "value": 0.615}, {"measurement": "glycan array binding signal (z-score)", "setting": "[4]", "value": -0.822}, {"measurement": "glycan array binding signal (z-score)", "setting": "[5]", "value": -0.3}, {"measurement": "glycan array binding signal (z-score)", "setting": "[6]", "value": -0.915}, {"measurement": "glycan array binding signal (z-score)", "setting": "[7]", "value": -0.723}, {"measurement": "glycan array binding signal (z-score)", "setting": "[8]", "value": 0.539}, {"measurement": "glycan array binding signal (z-score)", "setting": "[9]", "value": 4.33}, {"measurement": "glycan array binding signal (z-score)", "setting": "[10]", "value": -0.379}, {"measurement": "glycan array binding signal (z-score)", "setting": "Fuc(a1-2)Gal6S(b1-4)Glc", "value": -0.65}, {"measurement": "glycan array binding signal (z-score)", "setting": "[11]", "value": 0.343}, {"measurement": "glycan array binding signal (z-score)", "setting": "Fuc(a1-2)[Gal(a1-3)]Gal", "value": -0.156}, {"measurement": "glycan array binding signal (z-score)", "setting": "[12]", "value": -0.073}, {"measurement": "glycan array binding signal (z-score)", "setting": "[13]", "value": 1.11}, {"measurement": "glycan array binding signal (z-score)", "setting": "[14]", "value": 0.016}, {"measurement": "glycan array binding signal (z-score)", "setting": "[15]", "value": -0.566}, {"measurement": "glycan array binding signal (z-score)", "setting": "[16]", "value": -0.385}, {"measurement": "glycan array binding signal (z-score)", "setting": "[17]", "value": -0.461}, {"measurement": "glycan array binding signal (z-score)", "setting": "[18]", "value": -0.403}, {"measurement": "glycan array binding signal (z-score)", "setting": "[19]", "value": -0.969}, {"measurement": "glycan array binding signal (z-score)", "setting": "[20]", "value": -0.657}, {"measurement": "glycan array binding signal (z-score)", "setting": "[21]", "value": 0.02}, {"measurement": "glycan array binding signal (z-score)", "setting": "[22]", "value": 1.38}, {"measurement": "glycan array binding signal (z-score)", "setting": "[23]", "value": -0.454}, {"measurement": "glycan array binding signal (z-score)", "setting": "[24]", "value": 2.45}, {"measurement": "glycan array binding signal (z-score)", "setting": "[25]", "value": 0.01}, {"measurement": "glycan array binding signal (z-score)", "setting": "[26]", "value": -1.03}, {"measurement": "glycan array binding signal (z-score)", "setting": "[27]", "value": 0.964}, {"measurement": "glycan array binding signal (z-score)", "setting": "[28]", "value": -0.1}, {"measurement": "glycan array binding signal (z-score)", "setting": "[29]", "value": 2.87}, {"measurement": "glycan array binding signal (z-score)", "setting": "[30]", "value": 0.389}, {"measurement": "glycan array binding signal (z-score)", "setting": "[31]", "value": -0.141}, {"measurement": "glycan array binding signal (z-score)", "setting": "[32]", "value": -0.283}, {"measurement": "glycan array binding signal (z-score)", "setting": "[33]", "value": -0.164}, {"measurement": "glycan array binding signal (z-score)", "setting": "[34]", "value": -0.825}, {"measurement": "glycan array binding signal (z-score)", "setting": "[35]", "value": 2.23}, {"measurement": "glycan array binding signal (z-score)", "setting": "[36]", "value": 0.995}]}]}
